Measurements taken from US20200055918A1, “NOVEL MINOR HISTOCOMPATIBILITY ANTIGENS AND USES THEREOF” (UNIVERSITÉ DE MONTRÉAL, priority 2017, published 2020).

Legend:
Design in all cases: species or system human
B-LCL cells [1] = test: MiHA detection by LC-MS/MS after peptide isolation by immunoprecipitation (IP, W6/32); conditions: first symbol of IP/MAE
B-LCL cells [2] = test: MiHA detection by LC-MS/MS after peptide isolation by mild acid elution (MAE); conditions: second symbol of IP/MAE
B-ALL cells = test: as above; conditions: second symbol of the cell

Substance | IP (identified by immunoprecipitation) (B-LCL cells [1]) | MAE (identified by mild acid elution) (B-LCL cells [2]) | IP/MAE: detected with MAE isolation (B-ALL cells)
R/CPTRKPLSL (124) | ✓/✓ | ✓/✓ | 
ASELHTSLH/Y (83) | ✓/✓ | ✓/✓ | 
IS/PRAAAERSL (88) | ✓/✓ | ✓/✓ | 
QE/DLIGKKEY [MiHA No. 138] |  |  | ✓/✓
LC/SEKPTVTTVY (90) | ✓/✓ | ✓/✓ | 
SPRV/APVSPLKF (99) | ✓/✓ | ✓/✓ | 
H/RESPIFKQF (92) |  | ✓ | 
HPR/PQEQIAL (103) | ✓/✓ | ✓/✓ | 
SPRA/VPVSPLKF (101) | ✓/✓ | ✓/✓ | 
SP/LYPRVKVDF (115) | ✓/✓ | ✓/✓ | 
TTDKR/WTSFY (122) | ✓/✓ | ✓/✓ | 
APRES/NAQAI (112) | ✓/✓ | ✓/✓ | 
EL/IDPSNTKALY (85) | ✓/✓ | ✓/✓ | 
VPNV/EKSGAL (87) | ✓/✓ | ✓/✓ | 
SL/PRPQGLSNPSTL (100) | ✓/✓ | ✓/✓ | 
REEPEKI/MIL [MiHA No. 131] |  |  | ✓/✓
RP/L/RAGPALLL (128) | ✓/✓ | ✓/✓ | 
EI/LDPSNTKALY (86) | ✓/✓ | ✓/✓ | 
LARPA/VSAAL (111) | ✓/✓ | ✓/✓ | 
VI/TDSAELQAY (119) | ✓/✓ | ✓/✓ | 
EEINLQR/INI [MiHA No. 137] |  |  | ✓/✓

Substance | IP (identified by immunoprecipitation) (B-LCL cells [1]) | MAE (identified by mild acid elution) (B-LCL cells [2]) | IP/MAE: detected with MAE isolation (B-ALL cells)
LPRGMQ/KPTEF (120) | ✓/✓ | ✓/✓ | 
RP/LRKEVKEEL (114) |  | ✓ | 
RPR/HPEDQRL (109) | ✓ |  | 
R/QPRAPRESAQAI (113) | ✓ |  | 
KEMDSDQQR/T/KSY (105) | ✓ |  | 
APKKPTGA/VDL (82) | ✓ |  | 
VPREYI/VRAL (94) | ✓/✓ | ✓/✓ | 
RPRARYYI/VQV (95) | ✓/✓ | ✓/✓ | 
V/APEEARPAL (97) | ✓/✓ | ✓/✓ | 
TPRNTYKMTSL/V | ✓ |  | 
RPRAPRES/NAQAI (91) | ✓ |  | 
YTDSSSI/VLNY (125) | ✓ |  | 
LPSDDRGP/S/TL (89) | ✓ |  | 
IPF/LSNPRVL (116) | ✓/✓ | ✓/✓ | 
FSEPRAI/VFY (118) | ✓ |  | 
LPRGMQ/KPTEFFQSL (110) | ✓/✓ | ✓/✓ | 
EEA/T/SPSQQGF (129) | ✓ |  | 
SAFADRPS/AF (96) | ✓/✓ | ✓/✓ | 
NSEEHSAK/RY (121) | ✓ |  | 
NLDKNTV/MGY (98) | ✓ |  | 
M/L/VELQQKAEF (106) | ✓ |  | 
